PubChem BioAssay AID248 (DTP/NCI, 2004)
The list does not hold the whole screen: it is rich in T/C values a quarter to a half above the control, in often repeated tests (any T/C) and in doses without a T/C. Further doses and runs are listed elsewhere. T/C is the treated group as % of the vehicle group. Some doses have a count of surviving animals in place of a T/C: the source holds a T/C of zero for them, seemingly a mark for toxic or unscored doses. Some survivor counts are full or nearly so, which does not show that the dose was tolerated: survival well below the control is almost never listed, so the zero probably covers shortened survival too. Counts of survivors are from the toxicity check (mostly the fifth day) where no day follows; animals may have died later. Schedule codes are those of the source, read here as Q, the interval in days (D) or hours (H), X, the number of doses. Some schedules carry Z or #; the key to these is not given. Some entries were tested several times; their values stand side by side, smallest first.

System: L1210 leukemia ip in BDF1 mice, survival T/C
Assay: NCI In Vivo Anticancer Drug Screen. Data for tumor model L1210 Leukemia (intraperitoneal) in B6D2F1 (BDF1) mice
Details: T/C endpoint: mean survival time, higher T/C = longer survival
[1] = dose: 200.0 mg/kg/injection, schedule: Q01DX009 (ip), vehicle: Klucel (hydroxypropylcellulose) (HPC)
[2] = dose: 200.0 mg/kg/injection, schedule: Q04DX003 (ip), vehicle: Klucel (hydroxypropylcellulose) (HPC)
[3] = dose: 400.0 mg/kg/injection, schedule: Q01DX009 (ip), vehicle: Klucel (hydroxypropylcellulose) (HPC)
[4] = dose: 400.0 mg/kg/injection, schedule: Q04DX003 (ip), vehicle: Klucel (hydroxypropylcellulose) (HPC)
[5] = dose: 200.0 mg/kg/injection, schedule: Q04DX003 (ip), vehicle: saline with Tween-80
[6] = dose: 400.0 mg/kg/injection, schedule: Q04DX003 (ip), vehicle: saline with Tween-80
[7] = dose: 300.0 mg/kg/injection, schedule: Q01DX001 (ip), vehicle: saline
[8] = dose: 100.0 mg/kg/injection, schedule: Q01DX009 (ip), vehicle: saline
[9] = dose: 400.0 mg/kg/injection, schedule: Q04DX003 (ip), vehicle: saline
[10] = dose: 400.0 mg/kg/injection, schedule: Q01DX001 (ip), vehicle: saline
[11] = dose: 100.0 mg/kg/injection, schedule: Q04DX003 (ip), vehicle: saline with Tween-80
[12] = dose: 200.0 mg/kg/injection, schedule: Q04DX003 (ip), vehicle: saline
[13] = dose: 100.0 mg/kg/injection, schedule: Q01DX009 (ip), vehicle: Klucel (hydroxypropylcellulose) (HPC)

CC(C)=CCC/C(C)=C/CN1C(=O)C=CC1=O was tested, and the survivor count (dose: 50.0 mg/kg/injection, schedule: Q01DX009 (ip), vehicle: water) was 1 of 6, the survivor count (dose: 100.0 mg/kg/injection, schedule: Q04DX003 (ip), vehicle: water) was 0 of 6 and the survivor count (dose: 200.0 mg/kg/injection, schedule: Q04DX003 (ip), vehicle: water) was 0 of 6. The survivor count (dose: 400.0 mg/kg/injection, schedule: Q04DX003 (ip), vehicle: water) was 0 of 6.
For Nc1ncnc2nccnc12, the survivor count (dose: 225.0 mg/kg/injection, schedule: Q01DX Z (ip), vehicle: saline) was 0 of 6.
With OC(CCN1CCCCC1)(c1ccccc1)C1CCCC1 (stereo not given) the survivor count [1] was 0 of 6, the survivor count [2] was 2 of 4 and the survivor count [3] was 0 of 6. For the same compound, the survivor count [4] was 0 of 4.
For c1cc2c(c(NC3=NCCCS3)c1)CCCC2, the survivor count [3] was 0 of 6.
In the case of S=P(c1ccccc1)(N1CC1)N1CC1, the survivor count (dose: 200.0 mg/kg/injection, schedule: Q01DX Z (ip), vehicle: saline) is reported as 5 of 6, the survivor count (dose: 200.0 mg/kg/injection, schedule: Q04DX002 (ip), vehicle: saline with Tween-80) is reported as 3 of 3 and the survivor count (dose: 400.0 mg/kg/injection, schedule: Q01DX Z (ip), vehicle: saline) is reported as 4 of 6. The survivor count (dose: 400.0 mg/kg/injection, schedule: Q04DX002 (ip), vehicle: saline with Tween-80) was 3 of 3.
With O=P(CCC(F)(F)C(F)(F)C(F)(F)C(F)(F)C(F)(F)C(F)(F)C(F)(F)F)(N1CC1)N1CC1 the survivor count (dose: 150.0 mg/kg/injection, schedule: Q01DX001 (ip), vehicle: carboxymethylcellulose (CMC)) was 1 of 6 and the survivor count (dose: 300.0 mg/kg/injection, schedule: Q01DX001 (ip), vehicle: carboxymethylcellulose (CMC)) was 0 of 6.
CCOc1ccc(NC(=O)c2cc(C(=O)O)c(C(=O)Nc3ccc(OCC)cc3)cc2C(=O)O)cc1 was tested, and the survivor count (dose: 200.0 mg/kg/injection, schedule: Q04DX002 (ip), vehicle: Klucel (hydroxypropylcellulose) (HPC)) was 1 of 3.
With O=C(Nc1ccccc1)OC/C=C\c1ccccc1 the survivor count (dose: 100.0 mg/kg/injection, schedule: Q04DX002 (ip), vehicle: Klucel (hydroxypropylcellulose) (HPC)) was 3 of 3.
For CCN(CC)CCOC(=O)N1c2ccccc2Sc2ccccc21, the survivor count [1] was 0 of 6, the survivor count [5] was 3 of 6 and the survivor count [4] was 0 of 6. The survivor count [6] was 1 of 6.
For CC(C)c1cccc(OS(=O)(=O)c2ccccc2[N+](=O)[O-])c1, the survivor count [2] was 6 of 6.
In the case of COc1ccccc1N=C(N)N=C(N)N, the survivor count [7] is reported as 1 of 6.
CC(=O)Nc1ccc(S(=O)(=O)SC(F)(F)F)cc1 was tested, and the survivor count (dose: 40.0 mg/kg/injection, schedule: Q01DX001 (ip), vehicle: saline) was 2 of 6, the survivor count (dose: 75.0 mg/kg/injection, schedule: Q01DX001 (ip), vehicle: saline) was 1 of 6 and the survivor count (dose: 80.0 mg/kg/injection, schedule: Q01DX001 (ip), vehicle: saline) was 0 of 6. The survivor count (dose: 150.0 mg/kg/injection, schedule: Q01DX001 (ip), vehicle: saline) was 0 of 6 and the survivor count [7] was 0 of 6.
With O=Cc1ccc(N2CCCCC2)cc1 the survivor count [3] was 0 of 6.
In the case of O=C(Nc1ccccc1)Oc1ccc(C2CCCCC2)cc1, the survivor count (dose: 400.0 mg/kg/injection, schedule: Q04DX002 (ip), vehicle: Klucel (hydroxypropylcellulose) (HPC)) is reported as 3 of 3.
With CCC(O)C[As](=O)(O)c1ccc(Cl)cc1 (stereo not given) the survivor count (dose: 3.13 mg/kg/injection, schedule: Q01DX009 (ip), vehicle: saline with Tween-80) was 3 of 3, the survivor count (dose: 6.25 mg/kg/injection, schedule: Q01DX009 (ip), vehicle: saline with Tween-80) was 0 of 3 and 3 of 6 and the survivor count (dose: 12.5 mg/kg/injection, schedule: Q01DX009 (ip), vehicle: saline with Tween-80) was 0 of 6. For the same compound, the survivor count (dose: 25.0 mg/kg/injection, schedule: Q01DX009 (ip), vehicle: saline with Tween-80) was 0 of 6.
CCN(CC)CC(C)OC(=O)CCN1CC1 (stereo not given) was tested, and the survivor count [8] was 3 of 6 and the survivor count [9] was 0 of 6.
With C[N+](C)(C)/N=C1\CC2CCC1C2 (stereo not given) the survivor count [10] was 0 of 4.
For O=C(O)CCC(NC(=O)OCc1ccccc1)C(=O)OCc1ccccc1 (stereo not given), the survivor count [4] was 0 of 6.
With O=C1CCCC/C1=N/Nc1ccccc1 the survivor count [11] was 0 of 6, the survivor count [5] was 0 of 6 and the survivor count [6] was 0 of 6.
O=S1(=O)CCCO1 was tested, and the survivor count (dose: 400.0 mg/kg/injection, schedule: Q01DX009 (ip), vehicle: other) was 0 of 6.
For O=S1(=O)CC(Cl)C(I)C1 (stereo not given), the survivor count (dose: 400.0 mg/kg/injection, schedule: Q01DX009 (ip), vehicle: saline with Tween-80) was 0 of 6.
For CCCCCCCCCCCc1cc(=O)n(-c2cc(Cl)ccc2Cl)n1C, the survivor count [5] was 4 of 6 and the survivor count [6] was 2 of 6.
With CC(=O)Oc1cc2c[n+](C)c3c4cc(OC(C)=O)c(OC(C)=O)cc4ccc3c2cc1OC(C)=O the survivor count (dose: 220.0 mg/kg/injection, schedule: Q01DX009 (ip), vehicle: saline) was 2 of 6.
In the case of O=CC(CCN1CCCC1)(CCN1CCCC1)c1cccc2ccccc12, the survivor count [8] is reported as 1 of 6, the survivor count (dose: 200.0 mg/kg/injection, schedule: Q01DX009 (ip), vehicle: saline) is reported as 0 of 6 and the survivor count (dose: 400.0 mg/kg/injection, schedule: Q01DX009 (ip), vehicle: saline) is reported as 0 of 6.
In the case of CCCC/C(=N\NC(N)=S)c1ccc(F)cc1, the survivor count (dose: 15.0 mg/kg/injection, schedule: Q01DX Z (ip), vehicle: methylcellulose (MC)) is reported as 0 of 6, the survivor count (dose: 30.0 mg/kg/injection, schedule: Q01DX Z (ip), vehicle: methylcellulose (MC)) is reported as 5 of 6 and the survivor count (dose: 60.0 mg/kg/injection, schedule: Q01DX Z (ip), vehicle: methylcellulose (MC)) is reported as 5 of 6. The survivor count (dose: 60.0 mg/kg/injection, schedule: Q01DX Z (oral), vehicle: methylcellulose (MC)) was 2 of 6, the survivor count (dose: 120.0 mg/kg/injection, schedule: Q01DX Z (ip), vehicle: methylcellulose (MC)) was 0 of 6 and the survivor count (dose: 120.0 mg/kg/injection, schedule: Q01DX Z (oral), vehicle: methylcellulose (MC)) was 1 of 6. The survivor count (dose: 240.0 mg/kg/injection, schedule: Q01DX Z (oral), vehicle: methylcellulose (MC)) was 0 of 6.
In the case of CN=C(NO)c1ccccc1C, the survivor count (dose: 400.0 mg/kg/injection, schedule: Q01DX001 (ip), vehicle: carboxymethylcellulose (CMC)) is reported as 0 of 4.
With O=C(O)c1cc([N+](=O)[O-])ccc1Nc1ccccc1 the survivor count [11] was 6 of 6 and the survivor count [6] was 0 of 6.
With C1=CC2CC1CC2CNCCN1CC1 (stereo not given) the survivor count (dose: 40.0 mg/kg/injection, schedule: Q04DX003 (ip), vehicle: saline) was 0 of 6, the survivor count (dose: 100.0 mg/kg/injection, schedule: Q04DX003 (ip), vehicle: saline) was 0 of 6 and the survivor count [12] was 0 of 6. The survivor count [9] was 0 of 6.
With [Cl][Hg][c]1cccs1 the survivor count (dose: 50.0 mg/kg/injection, schedule: Q01DX009 (ip), vehicle: Klucel (hydroxypropylcellulose) (HPC)) was 0 of 6, the survivor count [13] was 0 of 6 and the survivor count [1] was 0 of 6. For the same compound, the survivor count [3] was 0 of 6.
With CCCCNCC1COc2cccc(OCC)c2O1 (stereo not given) the survivor count [8] was 1 of 6, the survivor count (dose: 200.0 mg/kg/injection, schedule: Q01DX001 (ip), vehicle: saline) was 0 of 4 and the survivor count [12] was 0 of 4. For the same compound, the survivor count [10] was 0 of 4.
With COC(=O)C1CC(C)(C)N(C)C1(C)C (stereo not given) the survivor count [13] was 2 of 6, the survivor count [3] was 0 of 6 and the survivor count [4] was 0 of 6.
